From PubChem BioAssay AID2551 (National Center for Advancing Translational Sciences (NCATS), 2010)
Hit rate of the full screen: of about 310,000 compounds, about 17,000 (5.5%) were called active. Inconclusive results, whose numbers are uncertain, are shown with a selection of clear calls. Calls follow the shape of the dose curve; as a rule, active = well fitted inhibition curve with a large enough effect; inconclusive = small, poorly fitted or top-dose-only effect, or effect the other way; inactive = no such curve, though single readings can be large or run the other way. A potency beside an inconclusive call is a rough fit, not a confirmed value.

Chains of the proteins cited; added tags and fusions are not shown. Lines headed by an entry give the natural chain unless they say otherwise; changes in a name come on top.
UniProt P51450: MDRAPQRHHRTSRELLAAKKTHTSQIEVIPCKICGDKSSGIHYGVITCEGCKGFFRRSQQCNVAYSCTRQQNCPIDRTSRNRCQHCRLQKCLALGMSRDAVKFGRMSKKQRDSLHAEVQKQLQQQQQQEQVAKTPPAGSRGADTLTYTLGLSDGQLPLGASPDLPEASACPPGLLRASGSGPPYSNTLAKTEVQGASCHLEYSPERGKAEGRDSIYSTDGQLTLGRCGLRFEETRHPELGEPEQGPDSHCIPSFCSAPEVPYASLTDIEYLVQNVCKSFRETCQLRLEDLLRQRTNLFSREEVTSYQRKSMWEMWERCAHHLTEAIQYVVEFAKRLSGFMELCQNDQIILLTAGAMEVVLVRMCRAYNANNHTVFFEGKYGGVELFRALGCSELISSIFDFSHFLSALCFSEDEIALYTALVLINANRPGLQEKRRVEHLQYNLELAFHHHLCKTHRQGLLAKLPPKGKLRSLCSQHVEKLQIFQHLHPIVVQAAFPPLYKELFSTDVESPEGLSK

Target: Nuclear receptor ROR-gamma (Mus musculus) (UniProt P51450)
Test: qHTS for inhibitors of ROR gamma transcriptional activity; also: nearly all actives have a fitted effect of over 60% in size
Details: Drosophila S2 Gal4-RORgamma UAS-luciferase reporter, 20 h; series mostly up to 53.6 µM
Procedure, shortened: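 Drosophila S2 cells stably expressing Gal4-DBD/mouse RORγ fusion under metallothionein promoter plus UAS-luciferase; compound 1 h, then 700 uM CuSO4 induction for 20 h at ambient temperature; inhibition read as reduced luminescence.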
Potency is read from the fitted curve at half-maximal effect.

Question: Which Potency does the source give for CCc1nnc(NC(=O)c2nc(S(=O)(=O)Cc3ccccc3)ncc2Cl)s1 here?
Answer: active: 11.2 µM

Question: CC(C)C1C(c2ccccc2)NC(c2ccccc2)CC1(O)c1ccc(F)cc1 (stereo unspecified) was tested. Which Potency did it give?
Answer: inconclusive: 35.5 µM [inhibitor, single point]

Question: How did the Potency turn out when COCC1CCN(Cc2cn[nH]c2-c2cc(OC)c(OC)c(OC)c2)CC1 was run?
Answer: inconclusive: 11.2 µM [activator, partial curve, poor fit]

Question: Which Potency does the source give for CC(Sc1nnc(Cn2c(=O)sc3ccccc32)n1C)c1ccccc1 (stereo unspecified) here?
Answer: inconclusive: 7.94 µM [activator, single point]

Question: For COc1ccc(NS(=O)(=O)c2cc(NC(=O)CC3CCCC3)ccc2N2CCOCC2)cc1, which Potency is on record?
Answer: inconclusive: 0.316 µM [inhibitor, full curve]

Question: For O=C(/C=C/c1ccc(F)cc1)NC(=S)Nc1ccccc1C(=O)NC1CCCCC1, which Potency is on record?
Answer: inconclusive: 35.5 µM [inhibitor, single point]

Question: With COc1ccccc1-c1c(-c2ccc(O)cc2O)n[nH]c1C(F)(F)F as the compound, how does the Potency read?
Answer: inconclusive: 6.31 µM [activator, single point]

Question: Cc1cc(C)c(S(=O)(=O)NC2CC(C)(C)NC(C)(C)C2)cc1Br was tested. Which Potency did it give?
Answer: inconclusive: 3.16 µM [inhibitor, single point]

Question: With Cc1ccc(/C=C/S(=O)(=O)NCC(=O)OCC(=O)NCc2ccccc2)cc1 as the compound, how does the Potency read?
Answer: inactive

Question: For Cc1cccc2cc(CN(Cc3ccco3)C(=O)NC3CCCCC3)c(=O)[nH]c12, which Potency is on record?
Answer: inconclusive: 35.5 µM [inhibitor, single point]

Question: For CC1(C)Cc2c(sc(NC(=O)c3ccc4ncsc4c3)c2C(N)=O)C(C)(C)N1, which Potency is on record?
Answer: inconclusive: 35.5 µM [inhibitor, single point]

Question: Which Potency does the source give for Cc1ccc(C(C)NC(=S)NC2CCCCC2)c(C)c1 (stereo unspecified) here?
Answer: active: 3.16 µM

Question: With Cc1ccc2[nH]cc(CCCN3C(=O)c4ccccc4C3=O)c2c1 as the compound, how does the Potency read?
Answer: inconclusive: 5.62 µM [activator, partial curve, poor fit]

Question: How did the Potency turn out when O=C(CSc1nnnn1-c1ccc2c(c1)OCCO2)OC1CCCCC1 was run?
Answer: inconclusive: 22.4 µM [inhibitor, single point]

Question: For Cc1[nH]n2c(=O)cc(C(C)C)nc2c1-c1ccccc1, which Potency is on record?
Answer: active: 11.2 µM

Question: Which Potency does the source give for CNc1ncc(Cc2ccccc2)s1 here?
Answer: active: 8.91 µM

Question: With COc1ccc(-c2[nH]ncc2/C=N\NS(=O)(=O)c2ccc(Cl)cc2)cc1 as the compound, how does the Potency read?
Answer: inconclusive: 6.31 µM [activator, partial curve]

Question: With NC(=O)[C@H]1CC2(CC(c3cccc(NC(=O)COc4ccc(Cl)cc4)c3)=NO2)CN1C(=O)c1ccccc1C(=O)c1ccccc1 (stereo partly specified) as the compound, how does the Potency read?
Answer: inconclusive: 5.62 µM [activator, partial curve]

Question: COc1ccccc1Cn1c(=S)[nH]c2cc(C(=O)N3CCN(C)CC3)ccc2c1=O was tested. Which Potency did it give?
Answer: inconclusive: 11.2 µM [inhibitor, single point]

Question: With Cc1ccc(NC2=CC(=O)C(=O)c3ccccc32)cc1 as the compound, how does the Potency read?
Answer: inconclusive: 6.31 µM [inhibitor, partial curve, poor fit]

Question: With Fc1ccccc1Cn1nnc2c(-n3ccnc3)ncnc21 as the compound, how does the Potency read?
Answer: inconclusive: 35.5 µM [inhibitor, single point]

Question: Which Potency does the source give for COc1ccc(NC(=O)CSc2nc3ccsc3c(=O)n2CCCCCC(=O)O)cc1 here?
Answer: inactive

Question: How did the Potency turn out when O=C(N1CCN(c2ccc(F)cc2)CC1)C1(c2cccs2)CCOCC1 was run?
Answer: inactive

Question: COc1cc(/C=N/NC(=O)c2cccnc2)cc(Br)c1O was tested. Which Potency did it give?
Answer: inconclusive: 7.94 µM [activator, partial curve]

Question: COc1ccccc1NC(=S)N(CCCN1CCOCC1)Cc1cn(C)c2ccccc12 was tested. Which Potency did it give?
Answer: inconclusive: 20 µM [inhibitor, single point]

Question: For COc1cccc(C2CCCN2Cc2nc(-c3cnccn3)no2)c1 (stereo unspecified), which Potency is on record?
Answer: inactive

Question: How did the Potency turn out when Cc1ccc(C(=O)Nc2nc3ccccc3c(=O)s2)cc1 was run?
Answer: active: 14.1 µM

Question: CCCn1c(NC(=O)c2ccc(F)cc2)nc2ccccc21 was tested. Which Potency did it give?
Answer: active: 0.316 µM

Question: Which Potency does the source give for CC1(C)CC2(CCO1)CNC(=O)O2 (stereo unspecified) here?
Answer: inactive

Question: How did the Potency turn out when CCOC(=O)c1c(NC(=S)NCCc2ccccc2)sc2c1CC(C(C)C)OC2 (stereo unspecified) was run?
Answer: active: 2.51 µM

Question: How did the Potency turn out when CCCOc1cccc(OCC(=O)Nc2nc3ccccc3[nH]2)c1 was run?
Answer: active: 10 µM

Question: For Cc1cc(C)nc(N/N=C/c2ccccc2Cl)n1, which Potency is on record?
Answer: inconclusive: 0.562 µM [inhibitor, full curve, poor fit]

Question: How did the Potency turn out when Cc1ccc(-c2c[n+]3c(n2-c2ccccc2)CCC3)cc1 was run?
Answer: inconclusive: 10 µM [activator, partial curve]

Question: With COc1cc(C2Nc3cccc4cccc(c34)N2)cc(OC)c1O as the compound, how does the Potency read?
Answer: inconclusive: 11.2 µM [inhibitor, single point]

Question: COc1ccc(C(=O)N2CCC3(CCCN(Cc4cc(C(F)(F)F)cc(C(F)(F)F)c4)C3)CC2)cc1 was tested. Which Potency did it give?
Answer: inactive

Question: With COc1ccc(NS(=O)(=O)c2cc(NC(=O)c3cnc(C)cn3)ccc2N2CCCC2)cc1 as the compound, how does the Potency read?
Answer: inconclusive: 5.01 µM [activator, full curve]

Question: For CCC(=O)c1cc(F)c(N2CCN(C(=O)c3ccco3)CC2)cc1C, which Potency is on record?
Answer: inconclusive: 11.2 µM [activator, partial curve]

Question: How did the Potency turn out when O=C(NCC1COc2ccccc2O1)c1ccc(Cl)cc1 (stereo unspecified) was run?
Answer: inconclusive: 0.0282 µM [activator, full curve, poor fit]

Question: NC(=O)c1c(NC(=S)Nc2ccc(F)cc2)sc2c1CCCC2 was tested. Which Potency did it give?
Answer: active: 10 µM

Question: Which Potency does the source give for Nc1c(C(=O)c2ccccc2O)cnn1-c1ccc(S(=O)(=O)N2CCOCC2)cc1[N+](=O)[O-] here?
Answer: inactive

Question: c1ccc(C2(CNc3ccccn3)CCCC2)cc1 was tested. Which Potency did it give?
Answer: inconclusive: 11.2 µM [inhibitor, single point]

Question: Cn1cccc1/C=N/NC(N)=S was tested. Which Potency did it give?
Answer: active: 6.31 µM

Question: Which Potency does the source give for CCCC1O[C@@H]2C[C@H]3[C@@H]4CCC5=CC(=O)C=C[C@]5(C)[C@H]4[C@@H](O)C[C@]3(C)[C@]2(C(=O)CO)O1 (stereo partly specified) here?
Answer: active: 12.6 µM

Question: How did the Potency turn out when O=C(Nc1ccncc1)c1c(F)c(F)c(F)c(F)c1F was run?
Answer: inconclusive: 11.2 µM [inhibitor, partial curve]

Question: With Cn1c2c(c(=O)n(C)c1=O)C(c1ccccc1Cl)CC(=O)N2 (stereo unspecified) as the compound, how does the Potency read?
Answer: inconclusive: 22.4 µM [inhibitor, single point]

Question: Which Potency does the source give for CCOC(=O)c1c(NC(=O)COC(=O)c2nc(Cl)ccc2Cl)sc2c1CCC2 here?
Answer: inconclusive: 35.5 µM [activator, single point]

Question: For Cc1noc(C)c1-c1ccc2ncnc(NCc3cc(F)cc(F)c3)c2c1, which Potency is on record?
Answer: inactive

Question: How did the Potency turn out when O=C(C1=NN(c2ccccc2)C2C(=O)N(c3ccc(Cl)cc3)C(=O)C12)c1ccccc1 (stereo unspecified) was run?
Answer: inconclusive: 20 µM [activator, single point]

Question: With CCN(CC)CCNc1nc(-c2ccc(OC)cc2)c(-c2ccc(OC)cc2)s1 as the compound, how does the Potency read?
Answer: inconclusive: 12.6 µM [inhibitor, single point]

Question: With N#CC(c1ccccc1)c1cccc(Cl)n1 (stereo unspecified) as the compound, how does the Potency read?
Answer: inactive

Question: Which Potency does the source give for COc1cc(C(=O)NCc2nnc(SCC(=O)Nc3c(C)cc(C)cc3C)o2)cc(OC)c1OC here?
Answer: inactive

Question: Which Potency does the source give for CCN1C(=NCCc2cccnc2)N[C@@H](c2ccccc2)[C@H](C(=O)OC)[C@H]1C here?
Answer: inconclusive: 3.98 µM [activator, single point]

Question: O=C(Nc1ccccc1)c1ccc(S(=O)(=O)NCc2ccco2)cc1 was tested. Which Potency did it give?
Answer: inconclusive: 17.8 µM [activator, partial curve]

Question: Which Potency does the source give for Cc1ccccc1OCCC(=O)Nc1ccc(F)c(Cl)c1 here?
Answer: active: 5.62 µM

Question: Which Potency does the source give for O=C(c1csc2ccccc12)N1CCN(c2ccc(Cl)c(Cl)c2)CC1 here?
Answer: inconclusive: 12.6 µM [activator, single point]

Question: How did the Potency turn out when CCn1cc(S(=O)(=O)CC(=O)N2CCc3ccccc32)c2ccccc21 was run?
Answer: inconclusive: 28.2 µM [activator, single point]

Question: How did the Potency turn out when Cc1cc(NC(=O)COC(=O)c2oc3c(ccc4ccccc43)c2C)no1 was run?
Answer: inconclusive: 35.5 µM [inhibitor, single point]

Question: For CCn1c(CNc2ccc(F)cc2)nnc1SCC(=O)Nc1ccccc1OC, which Potency is on record?
Answer: inconclusive: 20 µM [activator, partial curve, poor fit]

Question: CCOC(=O)C1=C(c2ccc(OC)cc2)C(=O)c2ccccc2C1=O was tested. Which Potency did it give?
Answer: active: 6.31 µM

Question: How did the Potency turn out when COc1ccc(OC)c(CCNC(=O)C(C)n2nc(C)c3c(C)n(-c4ccc(C)cc4)nc3c2=O)c1 (stereo unspecified) was run?
Answer: inconclusive: 15.8 µM [activator, single point]

Question: With CC1=CN2C(=N)/C(=C/c3ccco3)C(=O)N=C2S1 as the compound, how does the Potency read?
Answer: inconclusive: 3.16 µM [inhibitor, single point]

Question: For Cc1ccc(C(=O)Nc2ccc([N+](=O)[O-])cn2)o1, which Potency is on record?
Answer: inactive

Question: For CCN(CC)S(=O)(=O)c1ccc2c(c1)N(CC(=O)N1CCCC1)C(=O)CO2, which Potency is on record?
Answer: inactive

Question: With CC1(c2nnc(-c3ccc(F)cc3)o2)CC(c2c(Cl)cccc2Cl)=NO1 (stereo unspecified) as the compound, how does the Potency read?
Answer: inconclusive: 35.5 µM [inhibitor, single point]

Question: Which Potency does the source give for CC1(C)C2CCC1(C)C1(C2)NC(=O)c2ccccc2O1 (stereo unspecified) here?
Answer: inconclusive: 14.1 µM [activator, single point]

Question: How did the Potency turn out when C/C(CCC12CC3CC(CC(C3)C1)C2)=N\NC(N)=S was run?
Answer: active: 1.26 µM

Question: For COc1ccc(C(=O)Nc2cc(C(=O)NCCc3ccccc3)ccc2Cl)cc1, which Potency is on record?
Answer: inconclusive: 15.8 µM [activator, partial curve, poor fit]

Question: How did the Potency turn out when CC(=O)Nc1ccc2nc(NC(=O)CCc3ccccc3)sc2c1 was run?
Answer: inconclusive: 15.8 µM [activator, single point]

Question: Which Potency does the source give for O=C(Nc1ccccn1)C1COc2ccccc2O1 (stereo unspecified) here?
Answer: inactive

Question: Which Potency does the source give for CCc1nnc2c(NCCc3ccccc3)nc3ccccc3n12 here?
Answer: inactive

Question: O=C(NNC(=O)c1ccc2ccccc2c1O)c1ccccc1Cl was tested. Which Potency did it give?
Answer: inconclusive: 1.41 µM [inhibitor, full curve, poor fit]
